Data on 1 compound can be found in US11718864B2, “Cells and method of cell culture” (PFIZER INC., priority 2015, dated 2023).

Molecules are shown by their SMILES.

The test system of this test is GS-CHO cells (Cell line A). Description: Growth (viable cell density) of GS-CHO cells in Medium A spiked with putative inhibitor metabolites. The test is classed as cell-based, Chinese hamster. The following applies: single metabolite, at concentrations of 1 mM or lower; growth monitored 5 or 6 days. As for the experimental part: GS-CHO cells producing a recombinant antibody were inoculated at low viable cell densities (0.1E6 cells/mL) in various conditions in 5 ml volume, 6-well plate cultures. […] The pH of the Medium A, spiked-in with any one of the nine metabolites or any combination of the nine metabolites, was adjusted to 7 before inoculating the cells (on day 0).
For indolelactate, the stock solution (500 mM) was prepared in DMSO. […] All the conditions were run in duplicates or triplicates. Growth of the cells in above described conditions was monitored for 5 or 6 days.

Take `O=C(O)C(=O)Cc1ccc(O)cc1` [4-hydroxyphenylpyruvate]: the “effect on growth of cells” value is “potent negative effect on growth”.
